Experimental data reported in ChEMBL document CHEMBL5674883, “The Heterochromatin Landscape in Migrating Cells and the Importance of H3K27me3 for Associated Transcriptome Alterations” (Cells, 2018).
Further values from the same series stand in other lists.

By UniProt entry, the sequences of proteins in these tests, tags left out.
UniProt Q61188, whole entry: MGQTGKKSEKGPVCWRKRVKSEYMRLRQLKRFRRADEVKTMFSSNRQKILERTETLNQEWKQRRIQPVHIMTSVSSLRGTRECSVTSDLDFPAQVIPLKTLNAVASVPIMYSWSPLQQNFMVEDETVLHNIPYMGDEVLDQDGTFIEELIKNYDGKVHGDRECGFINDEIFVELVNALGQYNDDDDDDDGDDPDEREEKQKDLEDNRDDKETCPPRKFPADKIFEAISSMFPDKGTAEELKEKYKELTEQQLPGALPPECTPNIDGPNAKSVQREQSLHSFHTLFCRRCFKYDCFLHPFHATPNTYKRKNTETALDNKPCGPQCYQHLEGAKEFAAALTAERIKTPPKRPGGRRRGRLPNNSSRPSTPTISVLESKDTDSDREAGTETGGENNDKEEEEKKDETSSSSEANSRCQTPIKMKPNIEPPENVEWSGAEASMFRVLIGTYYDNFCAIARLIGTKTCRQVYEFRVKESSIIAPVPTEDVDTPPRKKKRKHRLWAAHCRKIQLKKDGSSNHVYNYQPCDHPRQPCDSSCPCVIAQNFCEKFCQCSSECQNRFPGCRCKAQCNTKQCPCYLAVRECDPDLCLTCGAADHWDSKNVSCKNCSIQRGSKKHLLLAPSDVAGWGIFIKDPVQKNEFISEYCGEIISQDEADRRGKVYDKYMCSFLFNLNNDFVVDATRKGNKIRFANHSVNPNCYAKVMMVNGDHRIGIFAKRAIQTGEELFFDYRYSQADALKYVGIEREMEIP

Tests used:
Assay type in all cases: cell-based
[1] = target: T1, RNA polymerase II (Mus musculus) (UniProt P08775+Q8CFI7+P97760+A0A3Q4L2S8+Q80UW8+P61219+P62488+Q923G2+P60898+O08740+Q63871+P62876); experiment: Inhibition of RNA polymerase II in mouse B16-F1 migrating cells assessed as fold change in Bnip3-RNA stability at 0.1 mM measured by ChIP-seq analysis relative to control cells
[2] = target: T1, RNA polymerase II (Mus musculus); experiment: Inhibition of RNA polymerase II in mouse B16-F1 migrating cells assessed as fold change in Smim20-RNA stability at 0.1 mM measured by ChIP-seq analysis relative to control cells
[3] = target: T1, RNA polymerase II (Mus musculus); experiment: Inhibition of RNA polymerase II in mouse B16-F1 migrating cells assessed as fold change in Rps10-RNA stability at 0.1 mM measured by ChIP-seq analysis relative to control cells
[4] = target: T1, RNA polymerase II (Mus musculus); experiment: Inhibition of RNA polymerase II in mouse B16-F1 migrating cells assessed as fold change in Snx17-RNA stability at 0.1 mM measured by ChIP-seq analysis relative to control cells
[5] = target: T1, RNA polymerase II (Mus musculus); experiment: Inhibition of RNA polymerase II in mouse B16-F1 migrating cells assessed as fold change in Rassf3-RNA stability at 0.1 mM measured by ChIP-seq analysis relative to control cells
[6] = target: T1, RNA polymerase II (Mus musculus); experiment: Inhibition of RNA polymerase II in mouse B16-F1 migrating cells assessed as fold change in Ikbip-RNA stability at 0.1 mM measured by ChIP-seq analysis relative to control cells
[7] = target: T1, RNA polymerase II (Mus musculus); experiment: Inhibition of RNA polymerase II in mouse B16-F1 migrating cells assessed as fold change in Srp54b-RNA stability at 0.1 mM measured by ChIP-seq analysis relative to control cells
[8] = target: T1, RNA polymerase II (Mus musculus); experiment: Inhibition of RNA polymerase II in mouse B16-F1 migrating cells assessed as fold change in Prpf40a-RNA stability at 0.1 mM measured by ChIP-seq analysis relative to control cells
[9] = target: T1, RNA polymerase II (Mus musculus); experiment: Inhibition of RNA polymerase II in mouse B16-F1 migrating cells assessed as fold change in Smc3-RNA stability at 0.1 mM measured by ChIP-seq analysis relative to control cells
[10] = target: T1, RNA polymerase II (Mus musculus); experiment: Inhibition of RNA polymerase II in mouse B16-F1 migrating cells assessed as fold change in Zfp266-RNA stability at 0.1 mM measured by ChIP-seq analysis relative to control cells
[11] = target: T1, RNA polymerase II (Mus musculus); experiment: Inhibition of RNA polymerase II in mouse B16-F1 migrating cells assessed as fold change in Klhl29-RNA stability at 0.1 mM measured by ChIP-seq analysis relative to control cells
[12] = target: T1, RNA polymerase II (Mus musculus); experiment: Inhibition of RNA polymerase II in mouse B16-F1 migrating cells assessed as fold change in Stag2-RNA stability at 0.1 mM measured by ChIP-seq analysis relative to control cells
[13] = target: T1, RNA polymerase II (Mus musculus); experiment: Inhibition of RNA polymerase II in mouse B16-F1 migrating cells assessed as fold change in Tyw5-RNA stability at 0.1 mM measured by ChIP-seq analysis relative to control cells
[14] = target: T1, RNA polymerase II (Mus musculus); experiment: Inhibition of RNA polymerase II in mouse B16-F1 migrating cells assessed as fold change in Bdp1-RNA stability at 0.1 mM measured by ChIP-seq analysis relative to control cells
[15] = target: T1, RNA polymerase II (Mus musculus); experiment: Inhibition of RNA polymerase II in mouse B16-F1 migrating cells assessed as fold change in Foxn2-RNA stability at 0.1 mM measured by ChIP-seq analysis relative to control cells
[16] = target: T1, RNA polymerase II (Mus musculus); experiment: Inhibition of RNA polymerase II in mouse B16-F1 migrating cells assessed as fold change in Carmil1-RNA stability at 0.1 mM measured by ChIP-seq analysis relative to control cells
[17] = target: T1, RNA polymerase II (Mus musculus); experiment: Inhibition of RNA polymerase II in mouse B16-F1 migrating cells assessed as fold change in Fbxo5-RNA stability at 0.1 mM measured by ChIP-seq analysis relative to control cells
[18] = target: T1, RNA polymerase II (Mus musculus); experiment: Inhibition of RNA polymerase II in mouse B16-F1 migrating cells assessed as fold change in 4930430F08Rik-RNA stability at 0.1 mM measured by ChIP-seq analysis relative to control cells
[19] = target: T1, RNA polymerase II (Mus musculus); experiment: Inhibition of RNA polymerase II in mouse B16-F1 migrating cells assessed as fold change in Tmx3-RNA stability at 0.1 mM measured by ChIP-seq analysis relative to control cells
[20] = target: Histone-lysine N-methyltransferase EZH2 (Mus musculus) (UniProt Q61188); experiment: Inhibition of EZH2 in mouse B16-F1 migrating cells assessed as fold change in H3K27me3-dependent regulated Plk2-mRNA expression at 3 uM measured by ChIP-seq analysis relative to control cells
[21] = target: Histone-lysine N-methyltransferase EZH2 (Mus musculus) (UniProt Q61188); experiment: Inhibition of EZH2 in mouse B16-F1 migrating cells assessed as fold change in H3K27me3-independent regulated Gm15425-mRNA expression at 3 uM measured by ChIP-seq analysis relative to control cells
[22] = target: Histone-lysine N-methyltransferase EZH2 (Mus musculus) (UniProt Q61188); experiment: Inhibition of EZH2 in mouse B16-F1 migrating cells assessed as fold change in H3K27me3-independent regulated Emp1-mRNA expression at 3 uM measured by ChIP-seq analysis relative to control cells
[23] = target: Histone-lysine N-methyltransferase EZH2 (Mus musculus) (UniProt Q61188); experiment: Inhibition of EZH2 in mouse B16-F1 migrating cells assessed as fold change in H3K27me3-buffered regulated Gm11478-mRNA expression at 3 uM measured by ChIP-seq analysis relative to control cells
[24] = target: Histone-lysine N-methyltransferase EZH2 (Mus musculus) (UniProt Q61188); experiment: Inhibition of EZH2 in mouse B16-F1 migrating cells assessed as fold change in H3K27me3-buffered regulated Tubb3-mRNA expression at 3 uM measured by ChIP-seq analysis relative to control cells
[25] = target: Histone-lysine N-methyltransferase EZH2 (Mus musculus) (UniProt Q61188); experiment: Inhibition of EZH2 in mouse B16-F1 migrating cells assessed as fold change in H3K27me3-buffered regulated Trappc6a-mRNA expression at 3 uM measured by ChIP-seq analysis relative to control cells
[26] = target: Histone-lysine N-methyltransferase EZH2 (Mus musculus) (UniProt Q61188); experiment: Inhibition of EZH2 in mouse B16-F1 migrating cells assessed as fold change in H3K27me3-buffered regulated Rev1-mRNA expression at 3 uM measured by ChIP-seq analysis relative to control cells
[27] = target: Histone-lysine N-methyltransferase EZH2 (Mus musculus) (UniProt Q61188); experiment: Inhibition of EZH2 in mouse B16-F1 migrating cells assessed as fold change in H3K27me3-buffered regulated Zfp101-mRNA expression at 3 uM measured by ChIP-seq analysis relative to control cells
[28] = target: Histone-lysine N-methyltransferase EZH2 (Mus musculus) (UniProt Q61188); experiment: Inhibition of EZH2 in mouse B16-F1 migrating cells assessed as fold change in H3K27me3-buffered regulated Cep85l-mRNA expression at 3 uM measured by ChIP-seq analysis relative to control cells
[29] = target: Histone-lysine N-methyltransferase EZH2 (Mus musculus) (UniProt Q61188); experiment: Inhibition of EZH2 in mouse B16-F1 migrating cells assessed as fold change in H3K27me3-buffered regulated Mamld1-mRNA expression at 3 uM measured by ChIP-seq analysis relative to control cells
[30] = target: Histone-lysine N-methyltransferase EZH2 (Mus musculus) (UniProt Q61188); experiment: Inhibition of EZH2 in mouse B16-F1 migrating cells assessed as fold change in H3K27me3-buffered regulated Pou3f2-mRNA expression at 3 uM measured by ChIP-seq analysis relative to control cells

Compound OC[C@H]1O[C@@H](n2cnc3cc(Cl)c(Cl)cc32)[C@H](O)[C@@H]1O has a log2FC [1] of 0.95, a log2FC [2] of 0.5 and a log2FC [3] of 0.4. For the same compound, the log2FC [4] was 0.39, the log2FC [5] was -0.41 and the log2FC [6] was -0.44. The log2FC [7] was -0.47, the log2FC [8] was -0.65 and the log2FC [9] was -0.66. It also gave a log2FC [10] of -0.68, a log2FC [11] of -0.7 and a log2FC [12] of -0.74. The log2FC [13] was -0.78, the log2FC [14] was -0.79 and the log2FC [15] was -0.85. It also gave a log2FC [16] of -0.87, a log2FC [17] of -0.89 and a log2FC [18] of -0.97. For the same compound, the log2FC [19] was -1.06.

Compound CCCc1cc(C)[nH]c(=O)c1CNC(=O)c1cc(-c2ccnc(N3CCN(C)CC3)c2)cc2c1cnn2C(C)C has a log2FC [20] of 0.09, a log2FC [21] of 1.51 and a log2FC [22] of 0.69. For the same compound, the log2FC [23] was 0.81, the log2FC [24] was 0.47 and the log2FC [25] was 0.45. For the same compound, the log2FC [26] was -0.41, the log2FC [27] was -0.47 and the log2FC [28] was -0.69. The log2FC [29] was -0.9 and the log2FC [30] was -1.32.
